# Source: US20260034146A1, “NEUROACTIVE 19-ALKOXY-17-S[…], PRODRUGS THEREOF, AND METHODS OF TREATMENT USING SAME” (priority 2012, published 2026)
# How the values were obtained:
# [1] = tested on: picrotoxin binding site on GABAA receptors; test: [35S]-TBPS displacement (inhibition of [35S]-TBPS binding); settings: Hill coefficient of the TBPS displacement curve; ± SEM
# Method: The IC50 values for non-competitive displacers of [^35S]-TBPS from the picrotoxin binding site on GABAA receptors are reported in Table 1.
# ^aResults presented are from duplicate experiments performed in triplicate. Error limits are calculated as standard error of the mean. Methods used are known in the art (see Jiang, X., et al., Neurosteroid analogues. 9. Conformationally constrained pregnanes: structure-activity studies of 13,24-cyclo-18,21-dinorcholane analogues of the GABA modulatory and anesthetic steroids (3α,5α)- and […]. J. Med. Chem., 46: 5334-48 (2003)—the contents of which are hereby incorporated by reference in their entirety).
# [2] = tested on: Tadpole; test: Tadpole loss of righting reflex (LRR) and loss of swimming reflex (LSR); type: in vivo; settings: Hill coefficient, ± SEM; for Tadpole LRR nHill: loss of righting reflex; for Tadpole LSR nHill: loss of swimming reflex
# Method: Table 3 discloses the anesthetic effects of the compounds of the present disclosure. In particular, the anesthetic effect of the compounds of the present disclosure on Loss of Righting Reflex (LRR) and Loss of Swimming Reflex (LSR).
# Methods used are known in the art (see Jiang, X., et al.). Error limits are calculated as standard error of the mean (N=10 or more animals at each of five or more different concentrations).
Compound,"nHill, inhibition of [35S]-TBPS binding [1]",Tadpole LRR nHill [2],Tadpole LSR nHill [2]
"COC[C@]12CCC(=O)C[C@@H]1CC[C@H]1[C@@H]3CC[C@H](OC)[C@@]3(C)CC[C@@H]12 [7, MQ-88, (5α,17β)-17,19-Dimethoxyandrostan-3-one]",1.27 ± 0.15,−2.41 ± 0.56,−33.3 ± 0.10
"COC[C@]12CC[C@@H](O)C[C@@H]1CC[C@H]1[C@@H]3CC[C@H](OC)[C@@]3(C)CC[C@@H]12 [8, MQ-89, (5α,17β)-17,19-Dimethoxyandrostan-3-ol]",1.05 ± 0.03,−2.32 ± 0.75,−16.1 ± 0.64
"COC[C@]12CC[C@@H](O)C[C@@H]1CC[C@@H]1[C@@H]2CC[C@@]2(C)[C@H]1CC[C@@]21CO1 [12, MQ-90, (3α,5α,17β)-19-Methoxyspiro[androstane-17,2′-oxiran]-3-ol]",1.06 ± 0.04,−2.53 ± 0.11,−17.9 ± 71
"COC[C@]12CC[C@@H](O)C[C@@H]1CC[C@@H]1[C@@H]2CC[C@]2(C)C(C#N)=CC[C@@H]12 [15, MQ-91, (3α,5α)-3-Hydroxy-19-methoxyandrost-16-ene-17-carbonitrile]",1.01 ± 0.10,−7.11 ± 28.0,−21.4 ± 0.7
"COC[C@]12CC[C@@H](O)C[C@@H]1CC[C@H]1[C@@H]3CC[C@H](C#N)[C@@]3(C)CC[C@@H]12 [16, MQ-92, (3α,5α,17β)-3-Hydroxy-19-methoxyandrostane-17-carbonitrile]",1.24 ± 0.14,−3.37 ± 1.34,−21.7 ± 0.6
"COC[C@]12CC[C@@H](O)C[C@@H]1CC[C@H]1[C@@H]3CC[C@H](C(C)=O)[C@@]3(C)CC[C@@H]12 [17, MQ-93, (3α,5α)-3-Hydroxy-19-methoxypregnan-20-one]",1.17 ± 0.09,−2.74 ± 1.12,−36.3 ± 0.1
"COC[C@]12CC[C@@H](O)C[C@@H]1CC[C@H]1[C@@H]3CC[C@H](C(=O)CO)[C@@]3(C)CC[C@@H]12 [20, MQ-98, (3α,5α)-3,21-Dihydroxy-19-methoxypregnan-20-one]",0.88 ± 0.12,−2.54 ± 1.23,−33.3 ± 0.1
"COC[C@]12CCC(=O)C=C1CC[C@@H]1[C@@H]2CC[C@]2(C)[C@@H](OC)CC[C@@H]12 [24, MQ-99, (17β)-17,19-Dimethoxyandrost-4-en-3-one]",1.24 ± 0.47,,
"COC[C@]12CC[C@@H](O)CC1=CC[C@@H]1[C@@H]2CC[C@]2(C)[C@@H](OC)CC[C@@H]12 [25, MQ-101, (3α,17β)-17,19-Dimethoxyandrost-5-en-3-ol]",0.94 ± 0.09,−2.80 ± 1.13,−21.1 ± 0
"COC[C@]12CC[C@H](O)CC1=CC[C@@H]1[C@@H]2CC[C@]2(C)[C@@H](OC)CC[C@@H]12 [26, MQ-100, (3β,17β)-17,19-Dimethoxyandrost-5-en-3-ol]",1.19 ± 0.24,,
"COC[C@]12CC[C@@H](O)C[C@@H]1CC[C@H]1[C@@H]3CC[C@H]([N+](=O)[O-])[C@@]3(C)CC[C@@H]12 [29, MQ-97, (3α,5α,17β)-19-methoxy-17-nitroandrostan-3-ol]",0.88 ± 0.08,−1.84 ± 0.11,−33.3 ± 0.1
"COC[C@]12CC[C@H](O)C[C@@H]1CC[C@H]1[C@@H]3CC[C@H](OC)[C@@]3(C)CC[C@@H]12 [31, MQ-96, (3β,5α,17β)-17,19-Dimethoxyandrostan-3-ol]",1.27 ± 0.33,−1.66 ± 0.51,−3.27 ± 2.5
